In this assay the target is platelet-derived growth factor receptor beta (human (endogenous in normal human Schwann cells)) (UniProt P09619). In words: co-IP; 100 μg total Schwann cell protein lysate (1% NP-40 buffer), pre-cleared 1 h on agarose protein G beads, immunoprecipitated with PDGFRβ antibody overnight, collected with protein G beads 2 h; GFP-control-infected and KIR2DL5A/B shRNA knock-down (sh#1-3) normal human Schwann cells.

Protein sequences, listed by entry. Tags and fused reporters are not part of them. Residues count along the entry.
UniProt P16234, residues 24-1089: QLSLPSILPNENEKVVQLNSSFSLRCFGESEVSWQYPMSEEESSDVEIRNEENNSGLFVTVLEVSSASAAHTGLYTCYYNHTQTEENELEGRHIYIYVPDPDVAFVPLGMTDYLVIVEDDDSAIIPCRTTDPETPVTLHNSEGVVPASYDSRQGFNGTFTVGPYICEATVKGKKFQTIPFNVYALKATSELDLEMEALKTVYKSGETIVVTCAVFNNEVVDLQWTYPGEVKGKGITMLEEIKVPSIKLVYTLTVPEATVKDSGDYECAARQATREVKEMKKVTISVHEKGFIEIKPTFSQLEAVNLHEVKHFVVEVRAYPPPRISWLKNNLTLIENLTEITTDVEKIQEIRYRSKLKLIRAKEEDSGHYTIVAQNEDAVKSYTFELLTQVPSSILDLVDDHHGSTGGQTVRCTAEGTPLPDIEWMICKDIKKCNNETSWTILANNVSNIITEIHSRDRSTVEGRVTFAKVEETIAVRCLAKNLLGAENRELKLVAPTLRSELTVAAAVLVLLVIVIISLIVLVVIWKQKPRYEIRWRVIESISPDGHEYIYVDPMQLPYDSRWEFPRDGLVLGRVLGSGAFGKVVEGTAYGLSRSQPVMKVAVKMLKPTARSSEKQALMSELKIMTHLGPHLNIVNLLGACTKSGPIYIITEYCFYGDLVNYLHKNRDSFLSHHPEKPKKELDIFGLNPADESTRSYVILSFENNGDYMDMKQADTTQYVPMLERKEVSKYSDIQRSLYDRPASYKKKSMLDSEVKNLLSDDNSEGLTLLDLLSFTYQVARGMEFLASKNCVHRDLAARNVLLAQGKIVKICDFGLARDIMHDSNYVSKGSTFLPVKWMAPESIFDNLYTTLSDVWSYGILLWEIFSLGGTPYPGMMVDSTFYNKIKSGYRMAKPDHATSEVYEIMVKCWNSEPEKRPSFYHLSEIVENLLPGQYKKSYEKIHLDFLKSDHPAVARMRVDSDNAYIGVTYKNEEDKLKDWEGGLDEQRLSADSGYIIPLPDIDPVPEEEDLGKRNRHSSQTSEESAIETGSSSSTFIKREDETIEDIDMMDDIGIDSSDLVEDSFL

Results are given in words; binding and its absence hold for the method and conditions named. In cells and extracts the contact can be indirect. Some entries that bind do so weakly or less than the wild type.

As for “PDGFRα (from UniProt P16234 24-1089) (receptor)”, the binding entry was “binds”.

(Values after paper PMC5564588.)
